Data taken from PMC9922828.
These are yes or no findings as the source states them, for the method shown. Binding seen in cells or lysates may run through a third protein. Some binding calls cover weakened binding; strength is not graded here.

Chains of the proteins cited; added tags and fusions are not shown.
UniProt Q07820: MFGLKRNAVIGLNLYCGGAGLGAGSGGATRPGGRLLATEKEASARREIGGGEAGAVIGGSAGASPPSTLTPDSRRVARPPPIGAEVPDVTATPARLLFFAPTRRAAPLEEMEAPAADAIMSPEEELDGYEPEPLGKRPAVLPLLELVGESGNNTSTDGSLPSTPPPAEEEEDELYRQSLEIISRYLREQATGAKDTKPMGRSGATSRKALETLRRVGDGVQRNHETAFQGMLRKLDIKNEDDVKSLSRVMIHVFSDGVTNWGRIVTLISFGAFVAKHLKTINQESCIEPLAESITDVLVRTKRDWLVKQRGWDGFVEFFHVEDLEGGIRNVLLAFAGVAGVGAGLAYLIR

Legend:
[1] = biological target: polyhistidine-tagged Mcl-1, Q07820; assay: pull-down; Ni-NTA agarose pull-down of 9His-Mcl-1 from lysates (EBC buffer: 50 mM Tris-HCl, 120 mM NaCl, 0.5% NP-40, pH 8.0) of HCT116 Mcl-1 KO cells stably expressing it, with or without alisertib (1 uM, 24 h); 2 h at 4 °C, washes with 10 mM imidazole, elution with imidazole, Western blot; details: remark: other sources report otherwise
[2] = biological target: polyhistidine-tagged Mcl-1 (UniProt Q07820); assay: as above

B1: Noxa, Q13794 1-54 (protein)
chain: MPGKKARKNAQPSPARAPAELEVECATQLRRFGDKLNFRQKLLNLISKLFCSGT
binding [1]: binds

B2: Bad (protein, UniProt Q92934 1-168)
chain: MFQIPEFEPSEQEDSSSAERGLGPSPAGDGPSGSGKHHRQAPGLLWDASHQQEQPTSSSHHGGAGAVEIRSRHSSYPAGTEDDEGMGEEPSPFRGRSRSAPPNLWAAQRYGRELRRMSDEFVDSFKKGLPRPKSAGTATQMRQSSSWTRVFQSWWDRNLGRGSSAPSQ
binding [2]: no binding
